Experimental data: PubChem BioAssay AID686943 (Drosophila RNAi Screening Center, 2013)
Screen: 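Fly genes whose loss alters ERK activation after insulin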 (primary screen). System: Drosophila S2R+ haemocyte-like cells expressing YFP-tagged ERK (Rolled). Reagent: long dsRNA against Drosophila genes. Challenge: insulin stimulation versus unstimulated cells; dose and duration not given. Measured: 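Antibody staining for doubly phosphorylated ERK divided by ERK-YFP signal, as plate z-scores, in insulin-treated and untreated cells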. Direction: replicate 1, z-score of dpERK with insulin and replicate 2, z-score of dpERK with insulin: higher = more active ERK per ERK-YFP after insulin.
In all, the deposit lists about 23,000 reagents; shown is a random part of those with a known target gene and a result. 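Extra replicates exist only for a retested subset of genes; insulin dose and duration not given; both raised and lowered dpERK matter.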 The numbers tell different reagents against one gene apart. Further read-outs or replicates are left out here. Not given: the amount of reagent, the time to read-out.

sosie #1
- replicate 1, z-score of dpERK with insulin: 0.72
- replicate 2, z-score of dpERK with insulin: -0.3

sosie #2
- replicate 1, z-score of dpERK with insulin: -0.31
- replicate 2, z-score of dpERK with insulin: 0.43

CG14400
- replicate 1, z-score of dpERK with insulin: 0.22
- replicate 2, z-score of dpERK with insulin: 0.08

CG11670
- replicate 1, z-score of dpERK with insulin: 1.01
- replicate 2, z-score of dpERK with insulin: 0.66

Sgsh
- replicate 1, z-score of dpERK with insulin: 0.02
- replicate 2, z-score of dpERK with insulin: 0.85

otk
- replicate 1, z-score of dpERK with insulin: -0.55
- replicate 2, z-score of dpERK with insulin: 0.23

CG42850 (retired record)
- replicate 1, z-score of dpERK with insulin: 0.52
- replicate 2, z-score of dpERK with insulin: -0.15

CG33777
- replicate 1, z-score of dpERK with insulin: -0.59
- replicate 2, z-score of dpERK with insulin: -0.25

CG5250
- replicate 1, z-score of dpERK with insulin: -0.57
- replicate 2, z-score of dpERK with insulin: -0.46

Dbp80
- replicate 1, z-score of dpERK with insulin: -0.05
- replicate 2, z-score of dpERK with insulin: 0.5

CG2617
- replicate 1, z-score of dpERK with insulin: 0.55
- replicate 2, z-score of dpERK with insulin: 0.19

DMAP1
- replicate 1, z-score of dpERK with insulin: -1.82
- replicate 2, z-score of dpERK with insulin: -1.88

CG2898
- replicate 1, z-score of dpERK with insulin: 0.75
- replicate 2, z-score of dpERK with insulin: 0.46

so
- replicate 1, z-score of dpERK with insulin: -0.06
- replicate 2, z-score of dpERK with insulin: -3.78

loco #1
- replicate 1, z-score of dpERK with insulin: 0.85
- replicate 2, z-score of dpERK with insulin: -0.26

loco #2
- replicate 1, z-score of dpERK with insulin: 0.52
- replicate 2, z-score of dpERK with insulin: 0.43

sky #1
- replicate 1, z-score of dpERK with insulin: 0.64
- replicate 2, z-score of dpERK with insulin: -0.01

sky #2
- replicate 1, z-score of dpERK with insulin: 2.04
- replicate 2, z-score of dpERK with insulin: 1.14

sky #3
- replicate 1, z-score of dpERK with insulin: 0.61
- replicate 2, z-score of dpERK with insulin: -0.25

Next part, starting with the last 2 of the part before.
sky #2
- replicate 1, z-score of dpERK with insulin: 2.04
- replicate 2, z-score of dpERK with insulin: 1.14

sky #3
- replicate 1, z-score of dpERK with insulin: 0.61
- replicate 2, z-score of dpERK with insulin: -0.25

CG42789
- replicate 1, z-score of dpERK with insulin: -0.21
- replicate 2, z-score of dpERK with insulin: -0.46

Cyp4g1
- replicate 1, z-score of dpERK with insulin: -0.35
- replicate 2, z-score of dpERK with insulin: -0.13

SAK
- replicate 1, z-score of dpERK with insulin: -0.12
- replicate 2, z-score of dpERK with insulin: 0.12

Bro
- replicate 1, z-score of dpERK with insulin: -0.19
- replicate 2, z-score of dpERK with insulin: -0.61

Gapvd1
- replicate 1, z-score of dpERK with insulin: 1.7
- replicate 2, z-score of dpERK with insulin: 0.56

Cdk8
- replicate 1, z-score of dpERK with insulin: 1.44
- replicate 2, z-score of dpERK with insulin: 0.77

CG32202
- replicate 1, z-score of dpERK with insulin: -0.84
- replicate 2, z-score of dpERK with insulin: -0.15

l(3)80Fg #1
- replicate 1, z-score of dpERK with insulin: -0.87
- replicate 2, z-score of dpERK with insulin: -0.32

l(3)80Fg #2
- replicate 1, z-score of dpERK with insulin: 0.23
- replicate 2, z-score of dpERK with insulin: 0.87

eEF1delta
- replicate 1, z-score of dpERK with insulin: -0.6
- replicate 2, z-score of dpERK with insulin: -0.61

CG5697
- replicate 1, z-score of dpERK with insulin: 6.27
- replicate 2, z-score of dpERK with insulin: -1.1

ApepP
- replicate 1, z-score of dpERK with insulin: -1.67
- replicate 2, z-score of dpERK with insulin: -0.01
